According to publication PMC10903759 (Journal of Genetic Engineering & Biotechnology, 2024):

Tested on: leaf rust (Puccinia triticina, CCDS-96-14-1 isolate) urediniospores
Format: cell-based

## AQRCGDQARGAKCPNCLCCGKYGFCGSGDAYCGAGSCQSQCRGC [WAMP-1a]
  germination rate of urediniospores: 87.63 % ± 0.90
